The list shows a part of the results.
What follows are targets tested with COc1ccc(Cn2ccc3cc(C)c(C(=O)NO)cc32)cc1 (assay: dose-dependent thermal stabilisation call (2D-TPP, DLPTP, 10% FDR) (binary (1 = stabilised)); higher = stabilised by the compound). Settings: system: HL-60 intact cells; concentration range 0.04-10 µM.
Protocol: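 2D thermal proteome profiling in intact HL-60 cells treated with BRD-3811 (0, 0.04, 0.29, 2, 10 uM) for 90 min at 37 C, then heated 3 min at one of 12 temperatures (42-63.9 C). Soluble protein was quantified by TMT10 MS. The value is the DLPTP call of the paper: dose-dependent thermal stabilisation over all temperatures at 10% FDR (F-test of a dose-response against a flat model); one experiment, one call per tested protein.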

By UniProt entry, the sequences of proteins in these tests, tags left out. Where a name states a change or a piece, a line headed by the entry shows the natural chain unless it says otherwise.
UniProt Q6ZNW5: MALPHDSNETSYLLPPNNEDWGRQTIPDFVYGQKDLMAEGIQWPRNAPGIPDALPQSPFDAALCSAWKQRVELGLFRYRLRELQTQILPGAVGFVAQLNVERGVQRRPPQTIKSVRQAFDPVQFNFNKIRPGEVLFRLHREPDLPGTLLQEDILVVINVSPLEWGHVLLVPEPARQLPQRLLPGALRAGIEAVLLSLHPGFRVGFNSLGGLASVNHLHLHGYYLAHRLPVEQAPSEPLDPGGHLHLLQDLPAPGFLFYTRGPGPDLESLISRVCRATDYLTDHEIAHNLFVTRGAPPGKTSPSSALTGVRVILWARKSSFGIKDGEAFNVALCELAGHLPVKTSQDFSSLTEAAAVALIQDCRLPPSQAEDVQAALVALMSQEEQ
UniProt O75964: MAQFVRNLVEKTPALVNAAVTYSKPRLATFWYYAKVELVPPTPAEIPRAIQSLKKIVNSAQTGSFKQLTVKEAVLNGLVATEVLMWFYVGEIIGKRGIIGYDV
UniProt Q8NCR0: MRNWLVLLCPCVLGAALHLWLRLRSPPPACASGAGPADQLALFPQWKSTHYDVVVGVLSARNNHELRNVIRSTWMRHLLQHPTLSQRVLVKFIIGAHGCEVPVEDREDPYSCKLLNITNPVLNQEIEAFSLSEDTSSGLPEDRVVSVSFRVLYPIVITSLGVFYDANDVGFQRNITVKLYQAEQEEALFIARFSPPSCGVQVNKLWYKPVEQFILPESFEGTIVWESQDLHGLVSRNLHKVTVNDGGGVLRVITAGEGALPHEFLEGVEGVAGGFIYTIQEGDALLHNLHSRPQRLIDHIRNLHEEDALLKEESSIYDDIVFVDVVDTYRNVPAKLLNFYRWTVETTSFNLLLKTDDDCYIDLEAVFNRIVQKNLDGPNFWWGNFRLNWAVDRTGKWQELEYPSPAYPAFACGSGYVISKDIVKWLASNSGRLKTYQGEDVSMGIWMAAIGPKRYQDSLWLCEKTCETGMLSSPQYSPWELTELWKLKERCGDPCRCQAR
UniProt Q04656: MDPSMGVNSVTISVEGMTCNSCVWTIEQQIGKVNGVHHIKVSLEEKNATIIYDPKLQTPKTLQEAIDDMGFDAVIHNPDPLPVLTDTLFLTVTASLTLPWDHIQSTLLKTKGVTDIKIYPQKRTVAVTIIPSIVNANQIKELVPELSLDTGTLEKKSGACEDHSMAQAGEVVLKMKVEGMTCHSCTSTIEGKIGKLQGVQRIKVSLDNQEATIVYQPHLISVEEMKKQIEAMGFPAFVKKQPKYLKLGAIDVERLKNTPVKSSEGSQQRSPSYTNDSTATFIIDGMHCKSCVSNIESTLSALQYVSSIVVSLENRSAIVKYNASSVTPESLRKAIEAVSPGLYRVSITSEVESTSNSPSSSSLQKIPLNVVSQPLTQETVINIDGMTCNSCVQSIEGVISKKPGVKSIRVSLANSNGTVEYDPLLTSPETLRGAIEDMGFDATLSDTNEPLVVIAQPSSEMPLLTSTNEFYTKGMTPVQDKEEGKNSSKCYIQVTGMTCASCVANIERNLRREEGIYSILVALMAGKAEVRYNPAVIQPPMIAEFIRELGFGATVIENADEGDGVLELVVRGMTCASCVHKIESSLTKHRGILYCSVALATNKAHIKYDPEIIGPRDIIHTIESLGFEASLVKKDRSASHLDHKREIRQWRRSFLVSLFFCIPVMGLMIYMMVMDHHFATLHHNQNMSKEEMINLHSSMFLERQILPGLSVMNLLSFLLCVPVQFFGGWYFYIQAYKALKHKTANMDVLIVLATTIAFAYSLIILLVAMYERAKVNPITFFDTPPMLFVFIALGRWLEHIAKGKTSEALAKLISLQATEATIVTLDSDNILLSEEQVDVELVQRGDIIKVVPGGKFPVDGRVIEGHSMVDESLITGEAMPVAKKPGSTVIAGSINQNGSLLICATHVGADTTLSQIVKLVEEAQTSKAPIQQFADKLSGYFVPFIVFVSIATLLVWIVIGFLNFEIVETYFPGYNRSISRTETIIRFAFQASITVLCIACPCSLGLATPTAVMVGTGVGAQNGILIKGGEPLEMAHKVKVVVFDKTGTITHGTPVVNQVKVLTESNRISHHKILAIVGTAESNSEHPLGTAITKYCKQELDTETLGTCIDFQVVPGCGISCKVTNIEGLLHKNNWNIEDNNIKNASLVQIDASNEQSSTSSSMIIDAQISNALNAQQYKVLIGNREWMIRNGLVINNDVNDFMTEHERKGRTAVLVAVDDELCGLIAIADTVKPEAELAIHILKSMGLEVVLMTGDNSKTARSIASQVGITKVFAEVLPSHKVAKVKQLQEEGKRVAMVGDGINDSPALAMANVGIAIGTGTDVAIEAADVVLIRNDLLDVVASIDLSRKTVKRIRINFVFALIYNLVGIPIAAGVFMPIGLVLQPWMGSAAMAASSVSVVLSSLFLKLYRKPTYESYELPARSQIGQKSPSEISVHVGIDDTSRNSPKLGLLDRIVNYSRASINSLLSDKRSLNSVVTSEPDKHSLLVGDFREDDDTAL
UniProt Q14CX7, whole entry: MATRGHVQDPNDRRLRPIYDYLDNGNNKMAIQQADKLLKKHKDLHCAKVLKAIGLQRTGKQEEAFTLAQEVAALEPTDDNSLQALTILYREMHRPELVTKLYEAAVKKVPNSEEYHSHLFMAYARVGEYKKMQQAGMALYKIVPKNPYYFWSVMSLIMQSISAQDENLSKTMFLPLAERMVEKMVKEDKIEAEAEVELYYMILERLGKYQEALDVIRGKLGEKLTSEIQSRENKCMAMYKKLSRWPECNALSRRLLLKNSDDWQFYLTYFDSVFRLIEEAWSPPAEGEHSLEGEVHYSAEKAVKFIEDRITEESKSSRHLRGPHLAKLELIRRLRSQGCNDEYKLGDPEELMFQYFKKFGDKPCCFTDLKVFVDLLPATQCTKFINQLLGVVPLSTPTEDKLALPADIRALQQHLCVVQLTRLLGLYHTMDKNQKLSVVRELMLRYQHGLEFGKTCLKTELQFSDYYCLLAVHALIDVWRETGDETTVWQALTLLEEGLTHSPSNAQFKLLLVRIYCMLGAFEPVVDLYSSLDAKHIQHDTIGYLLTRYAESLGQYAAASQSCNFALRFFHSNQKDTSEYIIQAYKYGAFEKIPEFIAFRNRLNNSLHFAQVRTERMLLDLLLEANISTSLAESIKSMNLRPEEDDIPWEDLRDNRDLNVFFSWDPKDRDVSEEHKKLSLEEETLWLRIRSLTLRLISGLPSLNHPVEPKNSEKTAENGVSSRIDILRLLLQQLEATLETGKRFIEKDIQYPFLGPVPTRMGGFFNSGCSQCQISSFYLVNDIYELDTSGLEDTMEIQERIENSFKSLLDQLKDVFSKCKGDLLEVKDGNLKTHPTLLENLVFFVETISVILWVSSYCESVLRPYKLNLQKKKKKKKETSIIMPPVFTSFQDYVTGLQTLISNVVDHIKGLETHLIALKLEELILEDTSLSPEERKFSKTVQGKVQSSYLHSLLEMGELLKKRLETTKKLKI
UniProt P18859: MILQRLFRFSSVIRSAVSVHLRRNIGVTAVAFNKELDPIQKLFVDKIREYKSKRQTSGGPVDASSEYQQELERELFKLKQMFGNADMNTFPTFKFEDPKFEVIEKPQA
UniProt P30049: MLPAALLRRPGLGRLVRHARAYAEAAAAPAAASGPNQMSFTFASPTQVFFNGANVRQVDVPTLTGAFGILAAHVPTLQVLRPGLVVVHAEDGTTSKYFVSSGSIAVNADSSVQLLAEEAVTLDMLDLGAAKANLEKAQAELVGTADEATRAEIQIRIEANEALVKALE
UniProt O75531: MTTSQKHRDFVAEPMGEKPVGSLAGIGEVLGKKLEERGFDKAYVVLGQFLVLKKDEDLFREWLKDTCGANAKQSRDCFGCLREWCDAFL
UniProt Q53S33: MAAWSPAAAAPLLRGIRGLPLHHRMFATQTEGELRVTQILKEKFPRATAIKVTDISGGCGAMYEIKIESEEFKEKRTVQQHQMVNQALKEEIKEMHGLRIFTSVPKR
UniProt Q7Z3E2: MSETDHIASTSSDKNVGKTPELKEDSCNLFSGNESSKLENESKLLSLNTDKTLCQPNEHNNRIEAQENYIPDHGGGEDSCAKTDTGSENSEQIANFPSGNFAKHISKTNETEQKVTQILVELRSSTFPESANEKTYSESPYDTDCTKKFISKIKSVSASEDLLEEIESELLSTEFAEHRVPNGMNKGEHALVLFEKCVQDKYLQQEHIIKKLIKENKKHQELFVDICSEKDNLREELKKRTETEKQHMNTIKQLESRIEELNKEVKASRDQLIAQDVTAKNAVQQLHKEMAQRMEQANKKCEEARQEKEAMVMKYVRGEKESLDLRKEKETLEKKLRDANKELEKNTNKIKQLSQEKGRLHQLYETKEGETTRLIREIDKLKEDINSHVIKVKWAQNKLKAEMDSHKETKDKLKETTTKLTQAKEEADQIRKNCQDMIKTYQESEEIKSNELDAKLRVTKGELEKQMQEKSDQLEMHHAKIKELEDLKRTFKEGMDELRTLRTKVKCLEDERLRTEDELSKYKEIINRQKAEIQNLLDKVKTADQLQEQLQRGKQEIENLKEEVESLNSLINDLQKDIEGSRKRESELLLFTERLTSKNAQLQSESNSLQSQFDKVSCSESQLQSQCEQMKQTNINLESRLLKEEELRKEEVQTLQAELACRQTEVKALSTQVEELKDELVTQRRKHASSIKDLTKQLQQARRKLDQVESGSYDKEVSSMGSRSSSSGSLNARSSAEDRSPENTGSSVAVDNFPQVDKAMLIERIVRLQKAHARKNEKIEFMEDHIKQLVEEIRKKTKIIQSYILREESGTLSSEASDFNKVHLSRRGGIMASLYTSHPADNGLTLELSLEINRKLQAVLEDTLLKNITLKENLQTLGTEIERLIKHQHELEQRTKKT

Target | dose-dependent thermal stabilisation call
C15ORF58 (UniProt Q6ZNW5) | inactive: 0
ATP5L (UniProt O75964) | inactive: 0
B3GALNT2 (UniProt Q8NCR0) | inactive: 0
ATP7A (UniProt Q04656) | inactive: 0
C12ORF30 (UniProt Q14CX7) | inactive: 0
ATP5J (UniProt P18859) | inactive: 0
ATP5D (UniProt P30049) | inactive: 0
BANF1 (UniProt O75531) | inactive: 0
BOLA3 (UniProt Q53S33) | inactive: 0
C10ORF118 (UniProt Q7Z3E2) | inactive: 0
